# The entries are a selection whose mix differs from that of the whole data set. The calls were merged from several studies; some rest on single wells. The list shows a part of the results.
# Tests used:
# Conditions in all cases: stereoisomer not certain
# [1] = target: T1, OR5M11 (Homo sapiens) (UniProt Q96RB7)
# T1 sequence (whole entry): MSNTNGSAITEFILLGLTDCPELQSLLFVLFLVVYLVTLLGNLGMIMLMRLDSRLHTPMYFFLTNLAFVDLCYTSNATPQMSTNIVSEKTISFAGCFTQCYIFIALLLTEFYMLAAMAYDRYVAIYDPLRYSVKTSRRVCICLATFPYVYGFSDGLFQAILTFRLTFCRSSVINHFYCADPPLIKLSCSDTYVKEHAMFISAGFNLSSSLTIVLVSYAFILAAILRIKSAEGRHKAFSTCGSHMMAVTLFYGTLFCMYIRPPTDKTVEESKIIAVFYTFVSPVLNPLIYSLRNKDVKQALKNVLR
# How it was run: (§1)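 Values were gathered from published papers (main text and supplementary material), with extra details requested from the original authors when needed, and checked for typos and inconsistencies. Each receptor–molecule pair is called responsive (active) if the original authors judged the measured signal statistically different from baseline, and non-responsive (inactive) otherwise. Assay methods varied by source, often transient mammalian cell-line luciferase assays. Recorded details include cell line, G-protein, co-transfected protein and tags.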
# [2] = test system: T2, OR5M1
# T2 sequence (whole entry): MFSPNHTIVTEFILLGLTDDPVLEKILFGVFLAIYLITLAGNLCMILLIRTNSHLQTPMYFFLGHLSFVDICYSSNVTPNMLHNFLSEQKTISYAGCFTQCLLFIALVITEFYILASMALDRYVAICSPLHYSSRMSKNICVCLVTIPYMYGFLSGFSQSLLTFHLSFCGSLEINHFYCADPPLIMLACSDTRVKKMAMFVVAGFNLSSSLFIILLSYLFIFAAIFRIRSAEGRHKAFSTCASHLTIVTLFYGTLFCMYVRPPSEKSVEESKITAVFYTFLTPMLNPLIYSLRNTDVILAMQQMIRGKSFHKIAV
# How it was run: as §1
# [3] = target: T3, OR5M8 (Homo sapiens) (UniProt Q8NGP6)
# T3 sequence (whole entry): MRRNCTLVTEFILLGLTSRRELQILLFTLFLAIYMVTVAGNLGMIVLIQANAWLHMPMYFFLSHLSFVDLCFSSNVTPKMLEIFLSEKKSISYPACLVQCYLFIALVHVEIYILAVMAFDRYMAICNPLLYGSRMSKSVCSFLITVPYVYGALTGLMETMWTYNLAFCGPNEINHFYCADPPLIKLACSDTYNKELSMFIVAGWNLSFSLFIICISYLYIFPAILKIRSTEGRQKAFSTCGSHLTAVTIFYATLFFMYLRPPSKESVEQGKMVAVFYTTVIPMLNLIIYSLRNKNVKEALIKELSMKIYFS
# How it was run: as §1
# [4] = target: T4, OR5M9 (Homo sapiens) (UniProt Q8NGP3)
# T4 sequence (whole entry): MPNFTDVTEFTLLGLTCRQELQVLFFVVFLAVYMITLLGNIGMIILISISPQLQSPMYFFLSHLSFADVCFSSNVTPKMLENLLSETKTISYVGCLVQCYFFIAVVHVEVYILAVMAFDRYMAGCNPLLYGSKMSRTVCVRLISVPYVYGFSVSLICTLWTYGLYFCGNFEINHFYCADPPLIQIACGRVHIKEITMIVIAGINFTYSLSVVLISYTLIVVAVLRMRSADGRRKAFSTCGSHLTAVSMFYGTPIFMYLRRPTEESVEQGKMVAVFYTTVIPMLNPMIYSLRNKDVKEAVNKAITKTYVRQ
# How it was run: as §1
# [5] = test system: T5, OR5MA
# T5 sequence (whole entry): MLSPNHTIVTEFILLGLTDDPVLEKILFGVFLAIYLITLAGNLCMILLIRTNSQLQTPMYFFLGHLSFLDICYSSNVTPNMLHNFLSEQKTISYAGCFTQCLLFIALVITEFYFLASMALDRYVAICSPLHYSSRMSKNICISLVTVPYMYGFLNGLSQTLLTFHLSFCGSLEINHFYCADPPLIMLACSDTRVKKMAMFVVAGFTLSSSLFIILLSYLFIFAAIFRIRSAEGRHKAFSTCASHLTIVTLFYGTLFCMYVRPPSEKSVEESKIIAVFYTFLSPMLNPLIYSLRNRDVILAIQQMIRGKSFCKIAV
# How it was run: as §1
# [6] = target: T6, OR5P2 (Homo sapiens) (UniProt Q8WZ92)
# T6 sequence (whole entry): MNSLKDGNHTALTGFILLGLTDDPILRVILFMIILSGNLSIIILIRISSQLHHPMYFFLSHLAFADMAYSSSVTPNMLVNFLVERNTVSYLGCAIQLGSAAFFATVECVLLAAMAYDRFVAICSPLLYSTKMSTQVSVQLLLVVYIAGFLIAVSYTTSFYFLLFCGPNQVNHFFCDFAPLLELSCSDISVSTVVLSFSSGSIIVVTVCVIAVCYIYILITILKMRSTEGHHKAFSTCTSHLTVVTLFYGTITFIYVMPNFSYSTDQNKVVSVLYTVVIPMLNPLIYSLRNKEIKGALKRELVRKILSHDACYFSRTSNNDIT
# How it was run: as §1
# [7] = target: T7, OR5P3 (Homo sapiens) (UniProt Q8WZ94)
# T7 sequence (whole entry): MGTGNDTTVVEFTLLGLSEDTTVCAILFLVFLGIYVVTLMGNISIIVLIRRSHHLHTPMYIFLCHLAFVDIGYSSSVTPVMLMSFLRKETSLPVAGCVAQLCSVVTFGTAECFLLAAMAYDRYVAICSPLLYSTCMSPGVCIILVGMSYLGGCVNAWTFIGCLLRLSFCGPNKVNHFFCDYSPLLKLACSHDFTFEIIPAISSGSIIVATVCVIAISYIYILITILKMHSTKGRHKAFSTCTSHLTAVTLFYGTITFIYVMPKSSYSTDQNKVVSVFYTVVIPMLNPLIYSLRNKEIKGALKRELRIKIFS
# How it was run: as §1
# [8] = test system: T8, OR5R1
# T8 sequence (whole entry): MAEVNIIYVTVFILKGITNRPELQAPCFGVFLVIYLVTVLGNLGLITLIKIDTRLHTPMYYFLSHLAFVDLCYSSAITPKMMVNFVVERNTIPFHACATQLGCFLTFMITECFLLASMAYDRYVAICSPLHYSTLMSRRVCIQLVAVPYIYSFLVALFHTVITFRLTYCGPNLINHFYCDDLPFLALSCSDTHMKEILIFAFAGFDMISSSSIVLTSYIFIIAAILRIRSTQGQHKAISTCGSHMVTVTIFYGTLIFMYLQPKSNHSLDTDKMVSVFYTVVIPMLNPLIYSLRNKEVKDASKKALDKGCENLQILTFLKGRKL
# How it was run: as §1
# [9] = target: T9, OR5T1 (Homo sapiens) (UniProt Q8NG75)
# T9 sequence (whole entry): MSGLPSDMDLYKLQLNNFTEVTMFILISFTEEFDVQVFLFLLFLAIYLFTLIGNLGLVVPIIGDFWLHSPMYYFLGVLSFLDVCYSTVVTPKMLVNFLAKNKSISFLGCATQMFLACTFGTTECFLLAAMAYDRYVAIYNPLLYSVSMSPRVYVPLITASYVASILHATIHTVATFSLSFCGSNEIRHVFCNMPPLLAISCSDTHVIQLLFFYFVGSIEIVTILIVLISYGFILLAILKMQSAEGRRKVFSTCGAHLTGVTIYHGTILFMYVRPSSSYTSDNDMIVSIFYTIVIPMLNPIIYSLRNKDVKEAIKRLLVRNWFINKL
# How it was run: as §1
# [10] = test system: T10, OR5T1
# T10 sequence (whole entry): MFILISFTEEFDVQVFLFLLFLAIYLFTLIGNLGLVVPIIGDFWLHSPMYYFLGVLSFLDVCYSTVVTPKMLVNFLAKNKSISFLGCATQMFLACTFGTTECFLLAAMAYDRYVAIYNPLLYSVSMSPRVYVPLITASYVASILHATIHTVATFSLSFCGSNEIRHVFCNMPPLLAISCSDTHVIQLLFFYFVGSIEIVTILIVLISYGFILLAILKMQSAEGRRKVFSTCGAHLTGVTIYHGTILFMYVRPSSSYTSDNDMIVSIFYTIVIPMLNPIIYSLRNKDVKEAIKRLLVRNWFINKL
# How it was run: as §1
# [11] = test system: T11, OR5T2
# T11 sequence (whole entry): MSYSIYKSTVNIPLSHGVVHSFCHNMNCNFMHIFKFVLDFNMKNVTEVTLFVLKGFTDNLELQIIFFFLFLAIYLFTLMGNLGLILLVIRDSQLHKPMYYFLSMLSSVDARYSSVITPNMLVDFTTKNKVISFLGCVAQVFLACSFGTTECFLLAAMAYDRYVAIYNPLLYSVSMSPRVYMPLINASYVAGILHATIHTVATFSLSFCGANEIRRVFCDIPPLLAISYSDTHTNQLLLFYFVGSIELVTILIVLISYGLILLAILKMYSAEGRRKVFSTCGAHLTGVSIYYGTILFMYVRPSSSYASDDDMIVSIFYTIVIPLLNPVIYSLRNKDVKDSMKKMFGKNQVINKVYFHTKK
# How it was run: as §1
# [12] = test system: T12, OR5T2; remark: listed apart in the source
# T12 sequence (whole entry): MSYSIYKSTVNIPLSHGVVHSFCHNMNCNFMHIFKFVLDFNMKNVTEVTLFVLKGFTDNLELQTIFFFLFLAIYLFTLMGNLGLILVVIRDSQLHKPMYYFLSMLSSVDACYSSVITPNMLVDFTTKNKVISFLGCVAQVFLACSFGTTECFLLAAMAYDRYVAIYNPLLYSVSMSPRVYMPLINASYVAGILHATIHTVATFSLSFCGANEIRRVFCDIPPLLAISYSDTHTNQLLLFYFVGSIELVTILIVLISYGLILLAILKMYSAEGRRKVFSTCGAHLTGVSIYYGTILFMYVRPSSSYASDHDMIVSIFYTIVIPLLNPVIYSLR
# How it was run: as §1
# [13] = test system: T13, OR5T3
# T13 sequence (whole entry): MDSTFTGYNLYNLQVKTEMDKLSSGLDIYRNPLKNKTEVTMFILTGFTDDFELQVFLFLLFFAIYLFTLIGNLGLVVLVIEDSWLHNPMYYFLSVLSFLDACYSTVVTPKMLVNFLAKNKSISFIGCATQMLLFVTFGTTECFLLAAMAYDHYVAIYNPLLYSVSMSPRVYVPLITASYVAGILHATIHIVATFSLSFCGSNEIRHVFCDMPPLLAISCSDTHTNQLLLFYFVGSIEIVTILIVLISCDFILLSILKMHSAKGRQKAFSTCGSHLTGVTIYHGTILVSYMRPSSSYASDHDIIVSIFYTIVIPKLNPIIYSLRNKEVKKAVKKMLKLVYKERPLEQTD
# How it was run: as §1
# [14] = target: T14, OR5V1 (Homo sapiens) (UniProt Q9UGF6)
# T14 sequence (whole entry): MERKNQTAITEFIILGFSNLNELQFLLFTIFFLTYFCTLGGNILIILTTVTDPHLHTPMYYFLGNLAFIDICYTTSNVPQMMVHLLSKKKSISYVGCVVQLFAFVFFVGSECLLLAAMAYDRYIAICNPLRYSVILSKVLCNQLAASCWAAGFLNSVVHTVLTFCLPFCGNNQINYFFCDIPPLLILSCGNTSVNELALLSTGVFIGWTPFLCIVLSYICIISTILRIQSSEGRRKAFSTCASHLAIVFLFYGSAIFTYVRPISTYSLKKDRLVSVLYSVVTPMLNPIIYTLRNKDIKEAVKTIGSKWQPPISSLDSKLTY
# How it was run: as §1
# [15] = test system: T15, OR5W2
# T15 sequence (whole entry): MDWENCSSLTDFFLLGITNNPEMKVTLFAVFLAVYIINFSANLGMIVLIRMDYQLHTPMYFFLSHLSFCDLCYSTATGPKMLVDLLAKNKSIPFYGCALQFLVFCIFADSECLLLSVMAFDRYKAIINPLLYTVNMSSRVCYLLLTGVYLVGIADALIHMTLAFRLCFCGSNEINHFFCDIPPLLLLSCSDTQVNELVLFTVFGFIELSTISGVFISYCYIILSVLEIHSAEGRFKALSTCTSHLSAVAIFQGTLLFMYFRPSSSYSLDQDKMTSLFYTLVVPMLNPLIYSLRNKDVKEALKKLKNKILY
# How it was run: as §1
# [16] = target: T16, OR6A2 (Homo sapiens) (UniProt O95222)
# T16 sequence (whole entry): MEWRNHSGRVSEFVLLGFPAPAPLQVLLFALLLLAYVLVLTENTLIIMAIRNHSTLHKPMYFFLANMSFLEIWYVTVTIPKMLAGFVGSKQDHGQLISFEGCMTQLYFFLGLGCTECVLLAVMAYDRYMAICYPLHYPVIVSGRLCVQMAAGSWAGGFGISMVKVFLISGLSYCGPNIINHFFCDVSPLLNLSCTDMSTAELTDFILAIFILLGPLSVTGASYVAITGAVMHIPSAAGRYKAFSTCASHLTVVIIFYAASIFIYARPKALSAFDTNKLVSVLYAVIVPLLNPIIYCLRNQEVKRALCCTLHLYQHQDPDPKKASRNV
# How it was run: as §1
# [17] = target: T17, OR5M3 (Homo sapiens) (UniProt Q8NGP4)
# T17 sequence (whole entry): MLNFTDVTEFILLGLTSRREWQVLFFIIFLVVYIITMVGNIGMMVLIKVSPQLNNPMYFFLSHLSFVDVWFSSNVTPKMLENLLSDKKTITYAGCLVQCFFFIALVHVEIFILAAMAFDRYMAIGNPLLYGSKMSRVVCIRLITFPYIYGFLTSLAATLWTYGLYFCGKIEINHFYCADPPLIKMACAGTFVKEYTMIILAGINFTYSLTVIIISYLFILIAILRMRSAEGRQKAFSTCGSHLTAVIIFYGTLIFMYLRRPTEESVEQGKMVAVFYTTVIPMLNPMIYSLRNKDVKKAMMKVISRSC
# How it was run: as §1
SMILES,odorant receptor agonist call [1],odorant receptor agonist call [2],odorant receptor agonist call [3],odorant receptor agonist call [4],odorant receptor agonist call [5],odorant receptor agonist call [6],odorant receptor agonist call [7],odorant receptor agonist call [8],odorant receptor agonist call [9],odorant receptor agonist call [10],odorant receptor agonist call [11],odorant receptor agonist call [12],odorant receptor agonist call [13],odorant receptor agonist call [14],odorant receptor agonist call [15],odorant receptor agonist call [16],odorant receptor agonist call [17]
CCCCCCCCCCC=O,inactive,inactive,inactive,inactive,inactive,inactive,inactive,inactive,inactive,inactive,inactive,inactive,inactive,inactive,inactive,inactive,–
CC(C)CCC(=O)O,inactive,inactive,inactive,inactive,inactive,inactive,inactive,inactive,inactive,inactive,inactive,inactive,inactive,inactive,inactive,inactive,–
COC(=O)c1ccccc1,–,inactive,inactive,inactive,–,inactive,active,inactive,inactive,inactive,inactive,inactive,inactive,active,inactive,inactive,inactive
CC(=O)OCC=C(C)CCC=C(C)C,active,inactive,inactive,active,active,inactive,inactive,inactive,inactive,inactive,inactive,inactive,inactive,inactive,inactive,inactive,–
CC(=O)c1ccccc1,–,inactive,inactive,inactive,–,inactive,active,inactive,inactive,inactive,inactive,inactive,inactive,inactive,inactive,inactive,–

# — the M2OR odorant receptor database
